These are yes or no findings as the source states them, for the method shown. Binding seen in cells or lysates may run through a third protein. These calls come from enrichment with a bait or labelling near it, and not all partners need be listed.
Biological target: KKIP8 (poly(A) polymerase PAP1) (Trypanosoma brucei (strain Lister 427)) (UniProt Q57ZJ6)
Assay: affinity purification with mass spectrometry; YFP-tagged bait captured from cleared lysate of ~3x10^9 procyclic cells on anti-GFP antibody beads, without cross-linking; HKMEG (150 mM KCl, 25 mM HEPES pH7.8), 1% Nonidet P40, 20 µM MG-132, 2 h on ice; label-free SINQ quantitation, enrichment against YFP-KKIP1 control

Amino acid sequences for entries named in this document (tags omitted). A change or cut given only in a name is not applied to a line headed by its entry.
UniProt Q57ZJ6: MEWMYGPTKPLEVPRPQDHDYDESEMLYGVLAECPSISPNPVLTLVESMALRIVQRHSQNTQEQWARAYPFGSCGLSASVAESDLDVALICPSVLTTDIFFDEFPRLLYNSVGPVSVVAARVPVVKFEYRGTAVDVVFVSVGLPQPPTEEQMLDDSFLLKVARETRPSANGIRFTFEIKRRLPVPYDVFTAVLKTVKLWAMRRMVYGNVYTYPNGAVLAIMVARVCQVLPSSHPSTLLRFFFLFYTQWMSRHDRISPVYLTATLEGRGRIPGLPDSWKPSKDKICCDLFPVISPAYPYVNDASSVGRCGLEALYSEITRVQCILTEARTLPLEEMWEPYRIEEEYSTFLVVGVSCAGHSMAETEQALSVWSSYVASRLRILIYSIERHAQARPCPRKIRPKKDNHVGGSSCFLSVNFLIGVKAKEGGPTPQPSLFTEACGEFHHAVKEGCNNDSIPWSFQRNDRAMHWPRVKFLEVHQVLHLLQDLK
UniProt Q386H7: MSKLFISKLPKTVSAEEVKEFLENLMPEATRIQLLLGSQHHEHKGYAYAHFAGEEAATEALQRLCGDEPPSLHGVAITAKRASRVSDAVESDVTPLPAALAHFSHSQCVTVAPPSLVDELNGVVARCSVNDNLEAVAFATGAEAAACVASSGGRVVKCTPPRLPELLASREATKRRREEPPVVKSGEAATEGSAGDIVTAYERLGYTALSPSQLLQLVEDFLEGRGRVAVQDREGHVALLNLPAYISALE

binding: binds
Substance: KKIP12 (RBP34) (from UniProt Q386H7)

— article PMC8023272
